Assay results from the supplement of paper PMC10849652.
This is one part of the list.

Chains of the proteins cited; added tags and fusions are not shown. Lines headed by an entry give the natural chain unless they say otherwise; changes in a name come on top.
UniProt A6NGB9: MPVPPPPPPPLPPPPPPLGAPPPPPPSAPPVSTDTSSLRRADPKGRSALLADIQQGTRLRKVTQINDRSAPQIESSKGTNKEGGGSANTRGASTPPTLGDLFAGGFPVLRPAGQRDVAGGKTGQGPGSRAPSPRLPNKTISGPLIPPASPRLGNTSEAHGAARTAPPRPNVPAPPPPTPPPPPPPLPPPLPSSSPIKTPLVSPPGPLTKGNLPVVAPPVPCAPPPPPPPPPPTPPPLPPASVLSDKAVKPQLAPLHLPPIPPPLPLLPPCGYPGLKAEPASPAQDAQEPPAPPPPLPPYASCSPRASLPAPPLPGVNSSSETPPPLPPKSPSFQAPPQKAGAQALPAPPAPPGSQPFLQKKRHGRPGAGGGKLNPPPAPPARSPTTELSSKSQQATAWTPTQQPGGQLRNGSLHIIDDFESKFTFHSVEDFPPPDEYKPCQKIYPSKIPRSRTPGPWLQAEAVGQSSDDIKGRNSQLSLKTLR
UniProt Q9NQA3: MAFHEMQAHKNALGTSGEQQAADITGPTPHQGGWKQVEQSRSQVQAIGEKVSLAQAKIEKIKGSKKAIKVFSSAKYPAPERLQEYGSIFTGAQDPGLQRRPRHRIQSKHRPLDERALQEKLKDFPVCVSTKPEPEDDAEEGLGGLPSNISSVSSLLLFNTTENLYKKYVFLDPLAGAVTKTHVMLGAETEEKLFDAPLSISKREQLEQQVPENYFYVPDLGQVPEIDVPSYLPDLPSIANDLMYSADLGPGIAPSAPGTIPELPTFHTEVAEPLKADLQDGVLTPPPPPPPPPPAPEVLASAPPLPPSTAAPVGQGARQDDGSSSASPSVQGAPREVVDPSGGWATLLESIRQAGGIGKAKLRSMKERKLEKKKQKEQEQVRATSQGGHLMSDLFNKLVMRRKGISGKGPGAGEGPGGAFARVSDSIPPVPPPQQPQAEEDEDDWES
UniProt O75717: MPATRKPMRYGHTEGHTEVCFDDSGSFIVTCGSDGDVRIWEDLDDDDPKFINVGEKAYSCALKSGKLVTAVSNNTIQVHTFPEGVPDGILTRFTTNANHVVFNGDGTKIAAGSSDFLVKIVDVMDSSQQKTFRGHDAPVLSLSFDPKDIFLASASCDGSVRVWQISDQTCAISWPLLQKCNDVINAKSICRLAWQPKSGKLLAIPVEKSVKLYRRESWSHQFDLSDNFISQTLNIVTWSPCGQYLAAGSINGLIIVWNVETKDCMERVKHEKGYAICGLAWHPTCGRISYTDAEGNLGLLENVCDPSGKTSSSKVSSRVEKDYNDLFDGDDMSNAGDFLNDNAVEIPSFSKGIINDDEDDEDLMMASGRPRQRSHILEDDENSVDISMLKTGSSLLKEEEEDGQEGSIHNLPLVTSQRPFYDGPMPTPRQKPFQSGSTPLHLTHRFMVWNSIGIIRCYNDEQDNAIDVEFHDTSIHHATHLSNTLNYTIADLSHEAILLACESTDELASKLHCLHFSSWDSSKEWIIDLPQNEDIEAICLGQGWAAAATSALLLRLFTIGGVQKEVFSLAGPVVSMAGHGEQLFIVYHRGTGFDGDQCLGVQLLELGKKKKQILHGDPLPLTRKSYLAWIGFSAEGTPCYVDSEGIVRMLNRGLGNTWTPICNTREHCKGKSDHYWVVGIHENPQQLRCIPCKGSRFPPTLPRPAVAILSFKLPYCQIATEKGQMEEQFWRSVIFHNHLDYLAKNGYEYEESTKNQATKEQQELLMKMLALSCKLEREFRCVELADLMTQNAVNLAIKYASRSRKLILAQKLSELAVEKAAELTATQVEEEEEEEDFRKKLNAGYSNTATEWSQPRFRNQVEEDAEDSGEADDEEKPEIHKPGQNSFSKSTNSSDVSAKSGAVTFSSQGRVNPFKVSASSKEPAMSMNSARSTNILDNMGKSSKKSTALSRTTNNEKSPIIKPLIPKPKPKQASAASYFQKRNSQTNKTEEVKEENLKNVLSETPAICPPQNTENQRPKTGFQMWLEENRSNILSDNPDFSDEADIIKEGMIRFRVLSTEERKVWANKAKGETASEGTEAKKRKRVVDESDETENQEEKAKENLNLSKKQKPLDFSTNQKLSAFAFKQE
UniProt Q9H977: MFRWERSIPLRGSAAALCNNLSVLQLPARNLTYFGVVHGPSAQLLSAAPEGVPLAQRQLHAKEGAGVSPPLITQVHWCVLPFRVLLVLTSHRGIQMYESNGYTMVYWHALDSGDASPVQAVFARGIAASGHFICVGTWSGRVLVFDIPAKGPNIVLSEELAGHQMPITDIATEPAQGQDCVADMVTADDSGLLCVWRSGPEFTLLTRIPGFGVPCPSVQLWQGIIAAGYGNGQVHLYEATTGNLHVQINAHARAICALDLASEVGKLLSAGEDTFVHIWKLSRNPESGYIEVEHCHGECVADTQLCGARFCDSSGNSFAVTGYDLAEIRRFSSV
UniProt Q6AWC2, whole entry, looked up: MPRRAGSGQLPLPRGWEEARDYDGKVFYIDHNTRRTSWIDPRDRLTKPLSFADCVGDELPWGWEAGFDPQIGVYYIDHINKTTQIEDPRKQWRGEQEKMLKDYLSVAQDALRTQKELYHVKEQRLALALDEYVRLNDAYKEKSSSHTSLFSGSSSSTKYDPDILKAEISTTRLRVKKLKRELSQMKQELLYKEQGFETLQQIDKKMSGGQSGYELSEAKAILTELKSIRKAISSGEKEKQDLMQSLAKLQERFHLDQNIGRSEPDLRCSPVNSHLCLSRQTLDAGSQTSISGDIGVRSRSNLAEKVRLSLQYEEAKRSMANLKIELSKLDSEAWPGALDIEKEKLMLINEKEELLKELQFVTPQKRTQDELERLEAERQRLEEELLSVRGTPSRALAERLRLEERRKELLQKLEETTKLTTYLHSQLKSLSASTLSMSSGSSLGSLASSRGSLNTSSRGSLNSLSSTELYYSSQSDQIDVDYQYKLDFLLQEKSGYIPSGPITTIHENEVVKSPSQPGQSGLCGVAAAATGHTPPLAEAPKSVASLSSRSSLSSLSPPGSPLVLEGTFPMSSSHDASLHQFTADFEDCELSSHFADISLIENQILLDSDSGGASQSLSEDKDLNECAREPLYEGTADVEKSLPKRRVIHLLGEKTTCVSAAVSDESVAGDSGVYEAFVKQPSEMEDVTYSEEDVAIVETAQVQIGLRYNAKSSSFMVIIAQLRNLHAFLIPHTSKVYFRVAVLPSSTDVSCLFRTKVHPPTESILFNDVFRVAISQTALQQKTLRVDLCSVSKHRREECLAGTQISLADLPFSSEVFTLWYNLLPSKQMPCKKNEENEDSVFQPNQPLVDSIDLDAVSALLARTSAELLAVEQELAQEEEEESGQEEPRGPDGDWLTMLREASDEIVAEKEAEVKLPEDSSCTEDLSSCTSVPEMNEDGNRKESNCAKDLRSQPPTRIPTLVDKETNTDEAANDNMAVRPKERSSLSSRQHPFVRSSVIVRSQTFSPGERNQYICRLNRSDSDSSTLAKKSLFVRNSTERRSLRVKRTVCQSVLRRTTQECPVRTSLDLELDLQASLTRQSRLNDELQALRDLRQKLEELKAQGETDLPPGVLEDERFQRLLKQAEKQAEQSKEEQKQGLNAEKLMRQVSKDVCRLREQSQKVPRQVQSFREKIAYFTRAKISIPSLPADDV
UniProt A3KMH1: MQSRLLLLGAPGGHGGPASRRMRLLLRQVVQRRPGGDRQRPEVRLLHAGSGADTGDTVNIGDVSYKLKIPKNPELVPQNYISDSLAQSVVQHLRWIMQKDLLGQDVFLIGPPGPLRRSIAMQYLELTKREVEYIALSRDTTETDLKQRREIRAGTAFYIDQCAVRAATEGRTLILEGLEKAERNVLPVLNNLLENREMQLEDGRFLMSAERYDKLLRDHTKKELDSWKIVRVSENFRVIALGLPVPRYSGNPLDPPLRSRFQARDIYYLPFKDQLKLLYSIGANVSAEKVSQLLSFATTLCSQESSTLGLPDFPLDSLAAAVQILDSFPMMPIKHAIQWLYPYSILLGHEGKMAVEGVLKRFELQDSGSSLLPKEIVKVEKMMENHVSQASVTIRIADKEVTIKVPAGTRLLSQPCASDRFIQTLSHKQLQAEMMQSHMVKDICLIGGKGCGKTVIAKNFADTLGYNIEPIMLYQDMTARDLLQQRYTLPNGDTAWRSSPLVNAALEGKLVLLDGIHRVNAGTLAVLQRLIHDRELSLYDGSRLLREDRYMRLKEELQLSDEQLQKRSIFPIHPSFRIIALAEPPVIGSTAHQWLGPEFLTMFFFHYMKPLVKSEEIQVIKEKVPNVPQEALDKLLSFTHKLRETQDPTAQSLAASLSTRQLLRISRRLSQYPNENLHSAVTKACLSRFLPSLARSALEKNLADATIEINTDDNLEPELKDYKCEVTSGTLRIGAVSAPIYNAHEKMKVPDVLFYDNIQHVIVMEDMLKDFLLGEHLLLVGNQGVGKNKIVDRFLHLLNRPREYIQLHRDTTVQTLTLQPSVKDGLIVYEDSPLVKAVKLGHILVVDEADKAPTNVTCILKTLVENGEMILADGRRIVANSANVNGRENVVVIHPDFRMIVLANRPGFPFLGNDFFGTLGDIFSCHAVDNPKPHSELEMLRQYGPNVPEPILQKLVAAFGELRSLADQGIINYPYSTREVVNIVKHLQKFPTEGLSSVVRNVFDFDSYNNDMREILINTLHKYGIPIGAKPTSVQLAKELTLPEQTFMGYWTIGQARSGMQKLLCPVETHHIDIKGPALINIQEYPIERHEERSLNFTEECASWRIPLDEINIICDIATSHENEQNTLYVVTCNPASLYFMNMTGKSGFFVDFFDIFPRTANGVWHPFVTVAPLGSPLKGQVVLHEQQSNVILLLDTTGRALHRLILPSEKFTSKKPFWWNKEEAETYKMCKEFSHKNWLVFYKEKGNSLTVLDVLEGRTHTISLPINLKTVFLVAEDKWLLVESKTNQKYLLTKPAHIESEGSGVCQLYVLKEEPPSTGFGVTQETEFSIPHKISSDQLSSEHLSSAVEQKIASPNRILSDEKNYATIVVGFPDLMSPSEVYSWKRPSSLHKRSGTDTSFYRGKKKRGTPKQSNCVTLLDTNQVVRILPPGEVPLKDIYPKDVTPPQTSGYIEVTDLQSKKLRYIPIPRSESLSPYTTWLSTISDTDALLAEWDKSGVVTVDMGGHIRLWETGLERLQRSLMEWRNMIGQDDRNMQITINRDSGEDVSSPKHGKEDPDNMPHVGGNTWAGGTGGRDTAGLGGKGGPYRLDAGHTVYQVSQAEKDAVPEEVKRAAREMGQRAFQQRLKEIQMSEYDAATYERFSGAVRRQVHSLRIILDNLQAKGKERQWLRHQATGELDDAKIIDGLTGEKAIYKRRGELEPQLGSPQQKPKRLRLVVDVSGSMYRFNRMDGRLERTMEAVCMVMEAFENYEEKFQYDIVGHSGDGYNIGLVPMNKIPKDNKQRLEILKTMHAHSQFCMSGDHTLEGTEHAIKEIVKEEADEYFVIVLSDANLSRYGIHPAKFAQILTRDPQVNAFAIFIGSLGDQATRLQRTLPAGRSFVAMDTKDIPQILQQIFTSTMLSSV
UniProt Q9H1Z4: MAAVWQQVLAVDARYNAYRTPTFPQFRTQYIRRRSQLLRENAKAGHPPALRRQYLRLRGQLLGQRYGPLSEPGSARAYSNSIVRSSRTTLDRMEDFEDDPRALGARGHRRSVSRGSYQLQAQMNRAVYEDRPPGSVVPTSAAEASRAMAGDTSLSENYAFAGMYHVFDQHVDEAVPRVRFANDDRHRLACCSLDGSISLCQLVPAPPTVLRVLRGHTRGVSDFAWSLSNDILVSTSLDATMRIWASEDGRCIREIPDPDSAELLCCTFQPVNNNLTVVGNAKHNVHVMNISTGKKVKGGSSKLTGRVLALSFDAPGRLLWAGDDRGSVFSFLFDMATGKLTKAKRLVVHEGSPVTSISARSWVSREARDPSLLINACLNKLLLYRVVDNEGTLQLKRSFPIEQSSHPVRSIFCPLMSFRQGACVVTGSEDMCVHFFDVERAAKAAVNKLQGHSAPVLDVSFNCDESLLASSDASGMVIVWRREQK
UniProt Q9H267: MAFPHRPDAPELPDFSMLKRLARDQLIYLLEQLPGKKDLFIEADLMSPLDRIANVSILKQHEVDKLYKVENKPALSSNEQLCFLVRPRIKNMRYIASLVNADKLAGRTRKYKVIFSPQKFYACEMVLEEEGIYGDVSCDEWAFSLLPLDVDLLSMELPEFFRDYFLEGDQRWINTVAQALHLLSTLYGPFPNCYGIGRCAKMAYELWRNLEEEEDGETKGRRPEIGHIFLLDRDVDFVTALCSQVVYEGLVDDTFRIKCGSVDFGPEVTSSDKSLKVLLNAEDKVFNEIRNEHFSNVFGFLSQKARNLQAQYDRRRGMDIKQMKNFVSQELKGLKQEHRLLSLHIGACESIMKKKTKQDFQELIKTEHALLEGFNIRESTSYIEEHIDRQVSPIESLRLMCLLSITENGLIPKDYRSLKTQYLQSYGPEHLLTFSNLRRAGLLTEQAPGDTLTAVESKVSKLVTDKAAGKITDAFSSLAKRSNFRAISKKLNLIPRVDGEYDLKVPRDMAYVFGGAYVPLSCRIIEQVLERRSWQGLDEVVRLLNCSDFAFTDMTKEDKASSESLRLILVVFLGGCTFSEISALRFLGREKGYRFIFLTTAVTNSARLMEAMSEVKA

Columns and labels:
Assay in all cases: log2 fold change, soluble protein after heating vs DMSO (PISA); higher = thermal stabilisation; K562 lysate, 10 uM; active = over 0.2 and 3.5 SD of the protein, either way, in both replicates (recomputed)
[1] = compound: C1=CC=C(C=C1)[C@H](COC2=CC3=C(C=C2)NC(=O)N3)NC(=O)C4=CC=CN(C4=O)CC5=CC(=C(C=C5)F)F
Outline: (§1)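 To prepare the extract, K562 pellets were dounce-homogenised in PBS pH 7.4 with 1 mM MgCl2, giving crude material at 1 mg/mL protein. This was treated with 10 μM compound for 30 min, then heated in aliquots for 3 min over 48°C-58°C before pooling and addition of NP-40 to 0.5% at 4°C. Centrifugation at 21,000xg for 90 min left soluble protein in the supernatant, which TMTpro 16plex LC-MS/MS quantified with equalised channel sums. Results are log-two fold changes in thermal stability compared with solvent controls, from duplicates.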

[2] = compound: CC1=C(SC2=C1C(=N[C@H](C3=NN=C(N32)C)CC(=O)N)C4=CC=C(C=C4)Cl)C
Outline: as §1

[3] = compound: CC1=C2C(=CC=C1)N=C(N(C2=O)C3=CC=CC=C3C)CN4C=NC5=C(N=CN=C54)N
Outline: as §1

[4] = compound: Cc1sc2c(c1C)C(c1ccc(Cl)cc1)=N[C@@H](CC(=O)OC(C)(C)C)c1nnc(C)n1-2
Outline: as §1

[5] = compound: c1ccc([C@@H]2C[C@H]2NC2CCNCC2)cc1
Outline: as §1

Measured: log2 fold change

WIPF3 (UniProt A6NGB9)
inactive: [1] 0.024 | [2] -0.016 | [3] -0.031 | [4] -0.057 | [5] -0.06

WDR4 (UniProt P57081)
inactive: [1] 0.034 | [2] -0.015 | [3] 0.019 | [4] -0.024 | [5] -0.026

WEE1 (UniProt P30291)
inactive: [1] -0.002 | [2] -0.099 | [3] -0.047 | [4] 0.03

WDFY1 (UniProt Q8IWB7)
inactive: [1] 0.039 | [2] -0.034 | [3] 0.03 | [4] -0.06 | [5] -0.044

WDR12 (UniProt Q9GZL7)
inactive: [1] 0.011 | [2] 0.013 | [3] 0.009 | [4] -0.009 | [5] -0.033

VPS25 (UniProt Q9BRG1)
inactive: [1] -0.046 | [2] -0.002 | [3] 0.027 | [4] 0.009 | [5] 0.105

XAGE1A (UniProt Q9HD64)
inactive: [1] 0.1 | [2] 0.008 | [3] 0.105

VRK3 (UniProt Q8IV63)
inactive: [1] 0.05 | [2] 0.057 | [3] 0.031 | [4] -0.049 | [5] 0.044

WDCP (UniProt Q9H6R7)
inactive: [1] 0.023 | [2] 0.068 | [3] -0.04 | [4] 0.049 | [5] 0.025

WASHC2A (UniProt Q641Q2)
inactive: [1] 0.014 | [2] -0.008 | [3] -0.004 | [4] -0.03 | [5] -0.037

WDR48 (UniProt Q8TAF3)
inactive: [1] 0.023 | [2] -0.002 | [3] 0.018 | [4] -0.029 | [5] -0.04

WRN (UniProt Q14191)
inactive: [1] 0.006 | [2] -0.017 | [3] 0.009 | [4] 0.01 | [5] 0.006

WIPF1 isoform 3 (UniProt O43516)
inactive: [1] -0.008 | [2] -0.002 | [3] -0.005 | [4] 0.072 | [5] -0.098

WASH6P (UniProt Q9NQA3)
inactive: [1] 0.037 | [2] 0.094

WARS1 (UniProt G3V277)
inactive: [1] 0.071 | [2] -0.143 | [3] 0

VPS26A (UniProt O75436)
inactive: [1] 0.01 | [2] 0.019 | [3] 0.009 | [4] -0.038 | [5] -0.02

WDR59 (UniProt Q6PJI9)
inactive: [1] 0.002 | [2] -0.008 | [3] 0.032 | [4] 0.023 | [5] 0.016

VPS45 (UniProt Q9NRW7)
inactive: [1] 0.052 | [2] 0.03 | [3] 0.017 | [4] -0.004 | [5] -0.001

WARS1 (UniProt G3V5U1)
inactive: [1] 0.198 | [2] -0.027

VPS54 (UniProt Q9P1Q0)
inactive: [1] -0.157 | [2] 0.136 | [3] 0.044 | [4] 0.053 | [5] -0.217

WDR47 (UniProt O94967)
inactive: [1] 0.069 | [2] 0.065 | [3] 0.02 | [4] 0.01 | [5] -0.041

WDHD1 (UniProt O75717)
inactive: [1] 0.018 | [2] -0.011 | [3] -0.017 | [4] 0.011 | [5] 0.067

VPS13D (UniProt Q5THJ4)
inactive: [1] -0.093 | [2] -0.045 | [3] -0.054 | [4] -0.082 | [5] 0.052

WRNIP1 (UniProt Q96S55)
inactive: [1] -0.051 | [2] -0.033 | [3] 0.024 | [4] 0.016 | [5] 0.06

WDR74 (UniProt Q6RFH5)
inactive: [1] 0.026 | [2] -0.009 | [3] 0.006 | [4] 0.034 | [5] 0.035

VPS33A (UniProt Q96AX1)
inactive: [1] 0 | [2] 0.017 | [3] 0.014 | [4] -0.013 | [5] -0.01

VTI1A (UniProt Q96AJ9)
inactive: [1] -0.001 | [2] -0.04 | [3] 0.186 | [4] 0.032 | [5] 0.023

WDR83 (UniProt Q9BRX9)
inactive: [1] 0.044 | [2] 0.082 | [3] -0.045 | [4] 0.055

VLDLR (UniProt P98155)
inactive: [1] 0.017 | [2] 0.037

XIRP2 isoform 8 (UniProt A4UGR9)
inactive: [1] 0.049 | [2] -0.034

WDR54 isoform 4 (UniProt Q9H977)
inactive: [1] 0.023 | [2] 0.205 | [3] 0.083 | [4] 0.069 | [5] 0.062

VPS16 (UniProt Q9H269)
inactive: [1] -0.035 | [2] -0.009 | [3] 0.041 | [4] 0.011 | [5] 0.005

WDTC1 (UniProt Q8N5D0)
inactive: [1] -0.004 | [2] 0.022 | [3] -0.015 | [4] -0.017 | [5] 0.069

WRB (UniProt O00258)
inactive: [1] 0.018 | [2] -0.021 | [3] -0.029 | [4] 0 | [5] -0.191

WDR5 (UniProt P61964)
inactive: [1] 0.031 | [2] 0.01 | [3] -0.024 | [4] 0.07 | [5] -0.215

WDR26, A0A499FIZ0
inactive: [1] 0.009 | [2] -0.019 | [3] 0.003 | [4] 0.009 | [5] -0.018

WARS2 (UniProt Q9UGM6)
inactive: [1] 0.01 | [2] 0.026 | [3] 0.018 | [4] 0.02 | [5] 0.039

WWC2 isoform 6 (UniProt Q6AWC2)
inactive: [1] -0.112 | [2] 0.04 | [3] 0.012 | [4] -0.016 | [5] -0.03

WTAP (UniProt Q15007)
inactive: [1] 0.001 | [2] 0.036 | [3] 0.005 | [4] -0.047 | [5] 0.021

VWA8 (UniProt A3KMH1)
inactive: [1] -0.036 | [2] 0.069 | [3] -0.162 | [4] -0.013 | [5] 0.199

VPS13C (UniProt Q709C8)
inactive: [1] -0.111 | [2] -0.002 | [3] 0.061 | [4] 0.018 | [5] 0.008

WDR24 (UniProt Q96S15)
active: [2] -0.475
inactive: [1] -0.066 | [3] -0.093 | [4] 0.002 | [5] -0.024

WDR13 (UniProt Q9H1Z4)
inactive: [1] -0.009 | [2] 0.033 | [3] 0.037 | [4] 0.047 | [5] 0.032

WDR70 (UniProt Q9NW82)
inactive: [1] 0.046 | [2] 0 | [3] 0.006 | [4] 0.002 | [5] 0.014

VPS8 (UniProt Q8N3P4)
inactive: [1] -0.046 | [2] 0.009 | [3] 0.034 | [4] -0.038 | [5] 0.01

WASL (UniProt O00401)
inactive: [1] -0.031 | [2] 0.036 | [3] 0.054 | [4] 0.073 | [5] 0.037

WDR53 (UniProt Q7Z5U6)
inactive: [1] 0.037 | [2] -0.032 | [3] -0.31 | [4] -0.077 | [5] -0.001

WNK1 isoform 7 (UniProt Q9H4A3)
inactive: [1] -0.016 | [2] 0.004 | [3] 0.022 | [4] -0.074 | [5] 0.018

WBP4 (UniProt O75554)
inactive: [1] 0.002 | [2] -0.001 | [3] -0.035 | [4] -0.054 | [5] 0

VPS35L (UniProt Q7Z3J2)
inactive: [1] 0.013 | [2] 0.004 | [3] 0.044 | [4] -0.032 | [5] 0.013

VPS29 isoform 2 (UniProt Q9UBQ0)
inactive: [1] 0.009 | [2] -0.097 | [3] -0.019 | [4] -0.005 | [5] -0.051

VPS33B (UniProt Q9H267)
inactive: [1] 0.013 | [2] -0.01 | [3] 0.04 | [4] -0.006 | [5] 0.014

VPS26C (UniProt O14972)
inactive: [1] 0.014 | [2] -0.045 | [3] 0.013 | [4] -0.076 | [5] -0.063

VPS4B (UniProt O75351)
inactive: [1] 0.019 | [2] -0.039 | [3] 0.017 | [4] 0.035 | [5] 0.067

WDR89 (UniProt Q96FK6)
inactive: [1] -0.001 | [2] 0.134 | [3] 0.097 | [4] 0.048 | [5] -0.006

WDR37 isoform 2 (UniProt Q9Y2I8)
inactive: [1] -0.056 | [2] 0.012 | [3] 0.037 | [4] 0.003 | [5] 0.045

Fetched one by one from the entries so far (2):
WARS1 (UniProt G3V5U1)
inactive: [1] 0.198 | [2] -0.027

WDR48 (UniProt Q8TAF3)
inactive: [1] 0.023 | [2] -0.002 | [3] 0.018 | [4] -0.029 | [5] -0.04
